Some of the results follow.
What was measured:
Test in all cases: glycan array binding signal (z-score within array); higher = stronger binding
Settings in all cases: glycan notation: IUPAC condensed, linker removed
[1] = molecular target: Fuc(a1-2)Gal(b1-4)GlcNAc(b1-3)Gal(b1-4)GlcNAc(b1-2)Man(a1-3)[Fuc(a1-2)Gal(b1-4)GlcNAc(b1-3)Gal(b1-4)GlcNAc(b1-2)Man(a1-6)]Man(b1-4)GlcNAc(b1-4)GlcNAc
Method in brief: (§1)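 The binding signal is a Z-score computed within each array and averaged over linkers. Arrays of the same protein sequence at different concentrations or buffers were also averaged together. Data originate from 3228 arrays in the Consortium for Functional Glycomics database, kept only where the protein sequence was available.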

[2] = molecular target: Fuc(a1-2)Gal(b1-4)GlcNAc(b1-3)Gal(b1-4)GlcNAc(b1-3)Gal(b1-4)GlcNAc
Method in brief: as §1

[3] = molecular target: Fuc(a1-2)Gal(b1-4)GlcNAc(b1-3)GalNAc
Method in brief: as §1

[4] = molecular target: Fuc(a1-2)Gal(b1-4)GlcNAc(b1-3)[Fuc(a1-2)Gal(b1-4)GlcNAc(b1-6)]GalNAc
Method in brief: as §1

[5] = molecular target: Fuc(a1-2)Gal(b1-4)GlcNAc(b1-3)[Fuc(a1-3)[Gal(b1-4)]GlcNAc(b1-6)]Gal(b1-4)Glc
Method in brief: as §1

[6] = molecular target: Fuc(a1-2)Gal(b1-4)GlcNAc(b1-6)GalNAc
Method in brief: as §1

[7] = molecular target: Fuc(a1-2)Gal(b1-4)GlcNAc6S
Method in brief: as §1

[8] = molecular target: Fuc(a1-2)Gal(b1-4)[Fuc(a1-3)]GlcNAc
Method in brief: as §1

[9] = molecular target: Fuc(a1-2)Gal(b1-4)[Fuc(a1-3)]GlcNAc(b1-2)Man(a1-3)[Fuc(a1-2)Gal(b1-4)[Fuc(a1-3)]GlcNAc(b1-2)Man(a1-6)]Man(b1-4)GlcNAc(b1-4)[Fuc(a1-6)]GlcNAc
Method in brief: as §1

[10] = molecular target: Fuc(a1-2)Gal(b1-4)[Fuc(a1-3)]GlcNAc(b1-2)[Fuc(a1-2)Gal(b1-4)[Fuc(a1-3)]GlcNAc(b1-4)]Man(a1-3)[Fuc(a1-2)Gal(b1-4)[Fuc(a1-3)]GlcNAc(b1-2)Man(a1-6)]Man(b1-4)GlcNAc(b1-4)GlcNAc
Method in brief: as §1

[11] = molecular target: Fuc(a1-2)Gal(b1-4)[Fuc(a1-3)]GlcNAc(b1-3)Gal(b1-4)[Fuc(a1-3)]GlcNAc
Method in brief: as §1

[12] = molecular target: Fuc(a1-2)Gal(b1-4)[Fuc(a1-3)]GlcNAc(b1-3)Gal(b1-4)[Fuc(a1-3)]GlcNAc(b1-3)Gal(b1-4)[Fuc(a1-3)]GlcNAc
Method in brief: as §1

[13] = molecular target: Fuc(a1-2)Gal(b1-4)[Fuc(a1-3)]GlcNAc(b1-3)GalNAc
Method in brief: as §1

[14] = molecular target: Fuc(a1-2)Gal(b1-4)[Fuc(a1-3)]GlcNAc(b1-3)[Neu5Ac(a2-6)Gal(b1-4)GlcNAc(b1-6)]Gal(b1-4)Glc
Method in brief: as §1

[15] = molecular target: Fuc(a1-2)Gal3S(b1-4)GlcNAc
Method in brief: as §1

[16] = molecular target: Fuc(a1-2)Gal6S(b1-3)GlcNAc
Method in brief: as §1

[17] = molecular target: Fuc(a1-2)Gal6S(b1-3)GlcNAc6S
Method in brief: as §1

[18] = molecular target: Fuc(a1-2)Gal6S(b1-4)Glc
Method in brief: as §1

[19] = molecular target: Fuc(a1-2)Gal6S(b1-4)Glc6S
Method in brief: as §1

[20] = molecular target: Fuc(a1-2)[Gal(a1-3)]Gal
Method in brief: as §1

[21] = molecular target: Fuc(a1-2)[Gal(a1-3)]Gal(b1-3)GalNAc
Method in brief: as §1

[22] = molecular target: Fuc(a1-2)[Gal(a1-3)]Gal(b1-3)GalNAc(b1-3)Gal(a1-4)Gal(b1-4)Glc
Method in brief: as §1

[23] = molecular target: Fuc(a1-2)[Gal(a1-3)]Gal(b1-3)GlcNAc
Method in brief: as §1

[24] = molecular target: Fuc(a1-2)[Gal(a1-3)]Gal(b1-3)GlcNAc(b1-2)Man(a1-3)[Fuc(a1-2)[Gal(a1-3)]Gal(b1-3)GlcNAc(b1-2)Man(a1-6)]Man(b1-4)GlcNAc(b1-4)GlcNAc
Method in brief: as §1

[25] = molecular target: Fuc(a1-2)[Gal(a1-3)]Gal(b1-3)GlcNAc(b1-2)Man(a1-3)[Fuc(a1-2)[Gal(a1-3)]Gal(b1-3)GlcNAc(b1-2)Man(a1-6)]Man(b1-4)GlcNAc(b1-4)[Fuc(a1-6)]GlcNAc
Method in brief: as §1

[26] = molecular target: Fuc(a1-2)[Gal(a1-3)]Gal(b1-3)GlcNAc(b1-3)GalNAc
Method in brief: as §1

[27] = molecular target: Fuc(a1-2)[Gal(a1-3)]Gal(b1-3)GlcNAc(b1-6)GalNAc
Method in brief: as §1

[28] = molecular target: Fuc(a1-2)[Gal(a1-3)]Gal(b1-4)Glc
Method in brief: as §1

[29] = molecular target: Fuc(a1-2)[Gal(a1-3)]Gal(b1-4)GlcNAc
Method in brief: as §1

[30] = molecular target: Fuc(a1-2)[Gal(a1-3)]Gal(b1-4)GlcNAc(b1-2)Man
Method in brief: as §1

B1: HA-61200 (Pseudomonas aeruginosa), Q02SP8_PSEAB (protein)
chain: MNKCYALVWNVSQGCWNVVSEGSRRRGKPAGAKAAIASVLALLGATALAPAYALPSGGTVVGGSANGEIHLSGGNSLSVNQKVDKLIANWDSFSVAAGERVIFNQPSSSSIALNRVIGTKASDIQGRIDANGQVFLVNPNGVLFGRGAQVNVGGLVASTLDITDAEFNGNSSRYRFTGPSTNGVLNHGGAITAAEGGSIALLGAQVDNRGTVLAQMGGVGLGAGSDLTLNFDGNKLLDIRVDAGVANALASNGGLLKADGGRVLMAARTANALLNTVVNSQGAIEARSLRGKNGRIVLDG
B1 was tested, and the “glycan array binding signal (z-score)” value [1] was 0.205, the “glycan array binding signal (z-score)” value [2] was -1.04 and the “glycan array binding signal (z-score)” value [3] was -0.278. For the same binder, the “glycan array binding signal (z-score)” value [4] was 0.694, the “glycan array binding signal (z-score)” value [5] was 0.103 and the “glycan array binding signal (z-score)” value [6] was -0.813. For the same binder, the “glycan array binding signal (z-score)” value [7] was -0.835, the “glycan array binding signal (z-score)” value [8] was -0.401 and the “glycan array binding signal (z-score)” value [9] was 2.1. The “glycan array binding signal (z-score)” value [10] was 0.963, the “glycan array binding signal (z-score)” value [11] was -0.777 and the “glycan array binding signal (z-score)” value [12] was -0.444. The “glycan array binding signal (z-score)” value [13] was 1.92, the “glycan array binding signal (z-score)” value [14] was -1.2 and the “glycan array binding signal (z-score)” value [15] was -0.283. The “glycan array binding signal (z-score)” value [16] was -0.096, the “glycan array binding signal (z-score)” value [17] was -0.424 and the “glycan array binding signal (z-score)” value [18] was -0.905. For the same binder, the “glycan array binding signal (z-score)” value [19] was -0.231, the “glycan array binding signal (z-score)” value [20] was 0.015 and the “glycan array binding signal (z-score)” value [21] was -0.249. The “glycan array binding signal (z-score)” value [22] was -1.23, the “glycan array binding signal (z-score)” value [23] was -0.174 and the “glycan array binding signal (z-score)” value [24] was -0.089. The “glycan array binding signal (z-score)” value [25] was -0.954, the “glycan array binding signal (z-score)” value [26] was 0.328 and the “glycan array binding signal (z-score)” value [27] was 0.051. The “glycan array binding signal (z-score)” value [28] was 0.106, the “glycan array binding signal (z-score)” value [29] was 0.085 and the “glycan array binding signal (z-score)” value [30] was -0.018.

Source: the supplement of paper PMC8728848
